# System: stomach of the rat
# Test: Test for ulcerogenic effect on the stomach of the rat
# Format: in vivo, rat (Chbb:THOM)
# Settings: added to antiphlogistics, oral
# Procedure: (1) Test for ulcerogenic effect on the stomach of the rat
# The test was carried out on male and female (1:1) Chbb:THOM-rats with a body weight between 130 to 150 gm at the beginning of the study.
# The test substances (non-steroidal anti-phlogistics or mixtures of these antiphlogistics with pirenzepine dihydrochloride) were administered as triturations in 1% tylose (1 ml/100 gm animal) by way of an esophageal tube once a day on three successive days.
# Four hours after the last administration (i.e. on the 3rd day) the animals were killed by an over-dose of ether. The stomachs wer dissected, cut along the great curvature and washed under flowing water for subsequent macroscopic evaluation.
structure (smiles),measurement,setting,value
"CN1CCN(CC(=O)N2c3ccccc3C(=O)Nc3cccnc32)CC1.Cl.Cl [A, 5,11-dihydro-11-[(4-methyl-1-piperazinyl)-acetyl]-6H-pyrido[2,3-b] [1,4] benzodiazepin-6-one dihydrochloride]",effect on ulcerogenicity (ED50) of non-steroidal antiphlogistics,dihydrochloride,weakened in dose-dependent manner
same,effect on ulcerogenicity (ED50) of non-steroidal antiphlogistics,listed as pirenzepine dihydrochloride,dose-dependent increase
